Laboratory results reported in patent publication US11077092B2, “Methods of treating diabetes by administering a glucagon receptor antagonist in combination with a cholesterol absorption inhibitor” (Merck Sharp & Dohme Corp., priority 2012, dated 2021).

Assays:
[1] = system: hGCGR mice; test: Sub-chronic treatment of hGCGR mice with GRA (Example 1): plasma total cholesterol, phytosterols, lathosterol, cholesterol synthesis; type: in vivo; conditions: 30 mpk QD for 5 days, vs vehicle; for cholesterol synthesis: D2O tracer
Experimental: Male hGCGR mice (Transgenic Research, 8:295-302, 1999) at ˜12 wks of age maintained on chow diet were treated with vehicle and GRA Compounds A, B, and C at 30 mpk QD for 5 days (n=8). On Day 1, mice were administered the compounds followed by glucagon-induced glucose tolerance test. On Day 5, mice were fasted at 7:30 am. After dosing at ˜9:00 am, the blood glucose was measured at 2-h post dose with a glucometer; see FIG. 1. At 6-h post dose, the tail blood was collected for PK measurement. Mice were euthanized with CO2, and blood was collected by cardiac puncture. The liver was snap frozen in liquid nitrogen with a freezing clamp and saved in −80° C. Plasma was isolated by centrifuging the blood at 8000 rpm for 5 min. The plasma level of total cholesterol was measured by biochemical assay (Wako Chemicals Inc.). The plasma level of lathosterol and phytosterol was measured by LC/MS. To determine cholesterol synthesis. D2O was administered i.p. at 20 ml/kg on 24 h prior to takedown of the mice. The level of D2 in plasma water and plasma cholesterol was assayed by GC/MS for cholesterol synthesis. Asterisks denote statistical significance between treatment and vehicle groups.

[2] = system: hGCGR mice; test: Dual tracer study for cholesterol absorption in hGCGR mice (Example 4); type: in vivo; conditions: 30 mpk QD for 9 days
Experimental: Male hGCGR mice at ˜12 wks of age maintained on chow or high cholesterol diet (n=8 group) were treated with vehicle and GRA Compound A@30 mpk QD for 9 days. Twenty four-hour feces before treatment and 3 days after treated were collected for fecal cholesterol characterization. On Day 4, mice were dosed with vehicle (0.5% MC, BID) or Compound A followed by administration with D6-cholesterol@15 mpk through p.o. and 13C-cholesterol@15 mpk through i.v. Blood was collected at 4, 24, 48, 72, and 96 h post injection by tail bleeding. For cholesterol synthesis, D2O was administered i.p. at 20 ml/kg on Day 7. On day 8, tail blood was collected for PK and mice were taken down for blood and liver collection. Plasma was isolated from blood by centrifuge at 8000 rpm for 5 min and submitted for GC/MS assay for cholesterol synthesis and absorption. Feces were sent to Taconic for fecal cholesterol assay. Asterisks denote statistical significance between treatment and vehicle groups. * p<0.05, **p<0.01, and ***p<0.001 by ANOVA.

Row | SMILES | cholesterol synthesis [1] | plasma level of campesterol [1] | plasma level of lathosterol [1] | plasma level of sitosterol [1] | cholesterol synthesis ([2]; D2O) | cholesterol absorption ([2]; dual tracer)
1 | Cc1cc(OC(CCC(C)(C)C)c2ccc(C(=O)NCCC(=O)O)cc2)cc(C)c1-c1ccc(C(F)(F)F)cc1 (centres unmarked) [Compound C, 3-{4-[1-(2,6-Dimethyl-4′-trifluoromethyl-biphenyl-4-yloxy)-4,4-dimethyl-pentyl]-benzoylamino}-propionic acid] | trends of increase | significantly induced | trends of increase | significantly induced |  | 
2 | COc1ccc2cc(-c3cc(-c4cc(C(F)(F)F)ccc4F)nn3[C@@H](C)c3ccc(C(=O)NCCC(=O)O)cc3)ccc2c1 [Compound A] | no significant effect | significantly induced | no significant effect | significantly induced | No change | significantly increased
3 | Cc1cc(OC(CCC(F)(F)F)c2ccc(C(=O)NCCC(=O)O)cc2)cc(C)c1-c1ccc(C(C)(C)C)cc1 (centres unmarked) [Compound B, 3-{4-[1-(4′-tert-butyl-2,6-dimethyl-biphenyl-4-yloxy)-4,4,4-trifluoro-butyl]-benzoylamino}-propionic acid] | trends of increase | significantly induced | trends of increase | significantly induced |  | 
